Laboratory results from PMC4118103.
These are yes or no findings as the source states them, for the method shown. In cells and extracts the contact can be indirect. Some results given as binding are weak or reduced against the parent protein; the word gives no strength.

By UniProt entry, the sequences of proteins in these tests, tags left out.
UniProt Q5S007: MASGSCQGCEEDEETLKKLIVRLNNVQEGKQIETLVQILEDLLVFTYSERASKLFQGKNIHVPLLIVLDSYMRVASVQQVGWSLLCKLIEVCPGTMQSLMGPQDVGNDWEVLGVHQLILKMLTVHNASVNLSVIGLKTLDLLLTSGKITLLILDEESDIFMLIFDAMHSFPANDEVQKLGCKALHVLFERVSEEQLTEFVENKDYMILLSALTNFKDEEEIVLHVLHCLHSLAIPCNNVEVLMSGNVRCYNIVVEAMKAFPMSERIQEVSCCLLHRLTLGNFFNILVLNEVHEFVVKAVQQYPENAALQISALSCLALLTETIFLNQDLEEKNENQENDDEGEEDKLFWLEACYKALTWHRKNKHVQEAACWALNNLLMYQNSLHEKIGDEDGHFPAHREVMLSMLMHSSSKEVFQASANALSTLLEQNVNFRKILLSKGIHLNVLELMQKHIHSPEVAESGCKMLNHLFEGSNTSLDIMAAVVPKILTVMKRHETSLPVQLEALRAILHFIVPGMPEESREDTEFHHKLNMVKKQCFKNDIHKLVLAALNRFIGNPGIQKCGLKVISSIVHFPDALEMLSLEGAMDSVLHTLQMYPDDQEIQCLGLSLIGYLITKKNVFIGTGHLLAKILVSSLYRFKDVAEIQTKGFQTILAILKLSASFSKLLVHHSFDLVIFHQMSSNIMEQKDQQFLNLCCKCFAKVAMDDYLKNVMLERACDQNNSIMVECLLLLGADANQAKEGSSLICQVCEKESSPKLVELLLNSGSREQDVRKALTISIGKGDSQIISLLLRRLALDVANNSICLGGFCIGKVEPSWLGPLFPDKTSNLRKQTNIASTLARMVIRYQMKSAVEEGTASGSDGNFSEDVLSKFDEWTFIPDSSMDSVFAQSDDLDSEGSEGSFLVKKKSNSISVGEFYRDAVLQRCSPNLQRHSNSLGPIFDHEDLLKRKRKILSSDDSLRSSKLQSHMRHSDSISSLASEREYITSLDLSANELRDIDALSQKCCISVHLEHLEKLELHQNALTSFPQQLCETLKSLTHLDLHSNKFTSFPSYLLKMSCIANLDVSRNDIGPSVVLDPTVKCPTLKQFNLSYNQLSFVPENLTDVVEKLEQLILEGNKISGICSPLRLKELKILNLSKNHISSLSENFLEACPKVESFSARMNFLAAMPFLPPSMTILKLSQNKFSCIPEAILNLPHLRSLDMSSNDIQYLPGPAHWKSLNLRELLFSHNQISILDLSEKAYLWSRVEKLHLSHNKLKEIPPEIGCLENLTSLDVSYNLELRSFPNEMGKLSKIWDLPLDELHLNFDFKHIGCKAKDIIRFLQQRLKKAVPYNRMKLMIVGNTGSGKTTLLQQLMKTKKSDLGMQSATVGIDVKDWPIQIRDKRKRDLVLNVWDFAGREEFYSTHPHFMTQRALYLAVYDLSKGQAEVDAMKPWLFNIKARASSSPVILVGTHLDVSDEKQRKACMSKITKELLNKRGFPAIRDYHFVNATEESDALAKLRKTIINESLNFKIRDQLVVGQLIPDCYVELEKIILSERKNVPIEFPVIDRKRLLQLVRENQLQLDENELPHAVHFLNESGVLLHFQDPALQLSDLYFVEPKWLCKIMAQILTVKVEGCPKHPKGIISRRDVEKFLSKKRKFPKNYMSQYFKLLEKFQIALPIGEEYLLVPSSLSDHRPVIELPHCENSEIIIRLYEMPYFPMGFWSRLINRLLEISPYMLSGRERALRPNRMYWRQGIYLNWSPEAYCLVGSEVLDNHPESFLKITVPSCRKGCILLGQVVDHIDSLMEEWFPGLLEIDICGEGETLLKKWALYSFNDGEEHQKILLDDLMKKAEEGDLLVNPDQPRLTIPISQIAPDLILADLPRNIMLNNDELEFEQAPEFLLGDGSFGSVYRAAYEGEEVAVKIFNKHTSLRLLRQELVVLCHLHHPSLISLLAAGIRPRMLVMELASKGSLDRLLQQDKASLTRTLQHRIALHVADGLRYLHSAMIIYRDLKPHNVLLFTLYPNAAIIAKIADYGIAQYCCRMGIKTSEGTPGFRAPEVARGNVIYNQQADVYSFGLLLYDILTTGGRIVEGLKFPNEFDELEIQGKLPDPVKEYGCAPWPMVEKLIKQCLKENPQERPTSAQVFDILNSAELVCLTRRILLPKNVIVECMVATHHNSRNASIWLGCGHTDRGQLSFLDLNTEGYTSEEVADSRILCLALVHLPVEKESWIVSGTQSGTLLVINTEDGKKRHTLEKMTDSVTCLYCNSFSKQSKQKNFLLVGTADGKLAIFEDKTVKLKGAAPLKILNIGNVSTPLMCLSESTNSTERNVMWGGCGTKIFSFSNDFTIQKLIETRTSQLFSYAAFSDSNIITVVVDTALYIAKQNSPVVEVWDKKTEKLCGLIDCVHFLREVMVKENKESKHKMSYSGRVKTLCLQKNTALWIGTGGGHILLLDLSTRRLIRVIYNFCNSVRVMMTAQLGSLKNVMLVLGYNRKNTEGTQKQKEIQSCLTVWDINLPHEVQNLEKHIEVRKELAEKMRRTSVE
UniProt P62136: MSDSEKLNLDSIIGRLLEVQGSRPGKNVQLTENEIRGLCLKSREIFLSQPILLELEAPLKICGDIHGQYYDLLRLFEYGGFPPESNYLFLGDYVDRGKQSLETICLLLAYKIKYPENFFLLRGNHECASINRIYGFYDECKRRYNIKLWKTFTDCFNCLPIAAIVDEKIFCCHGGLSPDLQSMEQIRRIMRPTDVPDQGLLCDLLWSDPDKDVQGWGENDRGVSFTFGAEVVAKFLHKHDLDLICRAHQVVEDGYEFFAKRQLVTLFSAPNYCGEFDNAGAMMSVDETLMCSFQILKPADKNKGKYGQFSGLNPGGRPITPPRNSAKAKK

Molecular target: 3×FLAG-LRRK2 WT (UniProt Q5S007)
Experiment: co-IP; HEK-293T cells transiently expressing WT FLAG LRRK2, blot for PP1α; untreated or treated with arsenite, LRRK2IN-1 or H2O2

binding: binds
Substance: protein phosphatase 1α (PP1α) (from UniProt P62136 1-330) (enzyme)
